At least one compound was matched to its structure with a doubt left.
Assays:
[1] = biological target: T1, soluble guanylate cyclase (sGC) (Homo sapiens (Human), UniProt Q02108+Q02153); assay: sGC-HEK-cGMP assay run with SNP incubation (HEK WC assay); format: cell-based; conditions: compound at 30 μM
Experimental: Human embryonic kidney cells (HEK293), endogenously expressing soluble guanylate cyclase (sGC), were used to evaluate the activity of test compounds. Compounds stimulating the sGC receptor should cause an increase in the intracellular concentration of cGMP. HEK 293 cells were seeded in Dulbecco's Modification of Eagle's Medium supplemented with fetal bovine serum (10% final) and L-glutamine (2 mM final) in a 200 μL volume at a density of 1×10^5 cells/well in a poly-D-lysine coated 96 well flat bottom plate and grown overnight at 37° C. Medium was aspirated and cells were washed with 1× Hank's Buffered Saline Salt Solution (200 μL). Cells were then incubated for 15 minutes at 37° C. with 0.5 mM 3-isobutyl-1-methylxanthine (200 μL). Test article and sodium nitroprusside were then added to the assay mixture (2 μL each) and incubated at 37° C. for 10 minutes. After the 10 minute incubation, the assay mixture was aspirated and 0.1M HCl (200 μL) was added to the cells. The plate was incubated at 4° C. for 30 minutes in the 0.1M HCl to stop the reaction and lysed the cells. The plates were then centrifuged at 1,200 g for 5 minutes at room temperature. Supernatants were collected and transferred to a new flat bottom 96 well plate for analysis. Vehicle controls were carried out using DMSO (1%). […] EC50 values were calculated from concentration-response curves generated with GraphPad Prism Software.

Chains of the proteins cited; added tags and fusions are not shown. Lines headed by an entry give the natural chain unless they say otherwise; changes in a name come on top.
UniProt Q02108, whole entry: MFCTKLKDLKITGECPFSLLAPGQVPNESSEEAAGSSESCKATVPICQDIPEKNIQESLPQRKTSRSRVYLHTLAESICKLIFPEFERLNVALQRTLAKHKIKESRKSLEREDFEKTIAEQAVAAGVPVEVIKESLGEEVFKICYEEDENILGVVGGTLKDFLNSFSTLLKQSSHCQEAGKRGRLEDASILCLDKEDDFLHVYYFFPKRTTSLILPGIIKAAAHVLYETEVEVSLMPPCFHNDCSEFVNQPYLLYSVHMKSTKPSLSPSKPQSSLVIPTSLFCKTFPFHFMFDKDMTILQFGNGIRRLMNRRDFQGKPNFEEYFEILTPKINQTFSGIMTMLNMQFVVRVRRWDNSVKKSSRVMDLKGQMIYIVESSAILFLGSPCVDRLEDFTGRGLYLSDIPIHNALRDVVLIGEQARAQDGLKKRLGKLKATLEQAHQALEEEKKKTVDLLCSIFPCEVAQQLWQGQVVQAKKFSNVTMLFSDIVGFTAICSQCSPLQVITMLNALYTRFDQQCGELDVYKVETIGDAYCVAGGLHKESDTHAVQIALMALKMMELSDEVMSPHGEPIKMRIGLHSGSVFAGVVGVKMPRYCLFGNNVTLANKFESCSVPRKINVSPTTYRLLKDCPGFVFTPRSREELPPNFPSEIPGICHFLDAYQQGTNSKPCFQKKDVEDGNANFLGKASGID
UniProt Q02153: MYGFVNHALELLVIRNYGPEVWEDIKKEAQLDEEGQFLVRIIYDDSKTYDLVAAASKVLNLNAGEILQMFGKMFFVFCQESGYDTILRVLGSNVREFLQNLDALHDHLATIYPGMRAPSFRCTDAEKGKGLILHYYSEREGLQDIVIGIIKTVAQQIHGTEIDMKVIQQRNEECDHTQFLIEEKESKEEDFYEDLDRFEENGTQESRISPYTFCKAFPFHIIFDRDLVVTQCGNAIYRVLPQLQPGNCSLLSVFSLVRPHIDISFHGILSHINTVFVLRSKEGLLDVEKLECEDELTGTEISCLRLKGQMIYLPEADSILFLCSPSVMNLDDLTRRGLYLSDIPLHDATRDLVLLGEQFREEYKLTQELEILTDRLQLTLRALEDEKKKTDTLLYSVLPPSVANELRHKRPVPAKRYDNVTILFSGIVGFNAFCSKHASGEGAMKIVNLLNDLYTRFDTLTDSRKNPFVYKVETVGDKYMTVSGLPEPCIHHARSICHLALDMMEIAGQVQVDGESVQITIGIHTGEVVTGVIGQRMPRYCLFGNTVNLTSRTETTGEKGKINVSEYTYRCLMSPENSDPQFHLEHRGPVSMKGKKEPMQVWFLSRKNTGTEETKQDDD

[2] = biological target: T1, soluble guanylate cyclase (sGC); assay: sGC-HEK-cGMP assay run in the absence of SNP (HEK WC assay); format: cell-based; conditions: compound at 30 μM
Experimental: Human embryonic kidney cells (HEK293), endogenously expressing soluble guanylate cyclase (sGC), were used to evaluate the activity of test compounds. Compounds stimulating the sGC receptor should cause an increase in the intracellular concentration of cGMP. HEK 293 cells were seeded in Dulbecco's Modification of Eagle's Medium supplemented with fetal bovine serum (10% final) and L-glutamine (2 mM final) in a 200 μL volume at a density of 1×10^5 cells/well in a poly-D-lysine coated 96 well flat bottom plate and grown overnight at 37° C. Medium was aspirated and cells were washed with 1× Hank's Buffered Saline Salt Solution (200 μL). Cells were then incubated for 15 minutes at 37° C. with 0.5 mM 3-isobutyl-1-methylxanthine (200 μL). Test article was then added to the assay mixture (2 μL) and incubated at 37° C. for 10 minutes. After the 10 minute incubation, the assay mixture was aspirated and 0.1M HCl (200 μL) was added to the cells. […] A 2× cGMP standard curve was prepared in 0.1 M HCl and then diluted with an equal volume of 1 M Ammonium Acetate, with the following final concentrations in nM: 1024, 512, 256, 128, 64, 32, 16, 8, 4, 2, 1. cGMP concentrations were determined from each sample using the LC/MS conditions (Table 2 below) and calculated standard curve. EC50 values were calculated from concentration-response curves generated with GraphPad Prism Software.

CC(C)(Oc1ccccc1)C(=O)Nc1cnc(-c2cc(-c3ccon3)n(Cc3ccccc3F)n2)nc1N [Compound I-230]
HEK WC Assay (fold increase at 30 μM in the presence of 10 μM SNP) [1]: E (E = 10 to <20 fold increase) | HEK WC Assay (fold increase at 30 μM in the absence of SNP) [2]: C (C = 2 to <5 fold increase)

O=S(=O)(c1cc(Cl)ccc1Cl)c1cnc(-c2cc(-c3ccon3)n(Cc3ccccc3F)n2)nc1O [Compound I-242]
HEK WC Assay (fold increase at 30 μM in the presence of 10 μM SNP) [1]: D (D = 5 to <10 fold increase) | HEK WC Assay (fold increase at 30 μM in the absence of SNP) [2]: C (C = 2 to <5 fold increase)

Source: patent publication US10189809B2, “SGC stimulators” (Ironwood Pharmaceuticals, Inc., priority 2010, dated 2019)
